Measured values taken from PubChem BioAssay AID445 (National Center for Advancing Translational Sciences (NCATS), 2006).
The other results are listed elsewhere or left out. These are further read-outs of the screen, such as a control signal, another cell line or another target. No call is given for them. Compounds called inactive in the main read-out are mostly missing here. Potencies come from curve fits of mixed quality, noted in brackets.

Test: IkB Signaling
Conditions: ABC-DLBCL IkBa-CBG/CBR dual luciferase ratio (green luciferase fused to IkBa over red control in OCI-Ly3 lymphoma cells), 4 h; measured here: control luc red channel unless noted
Method in brief: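 Luminescence ratio of IκBα-fused green versus native red beetle luciferase in OCI-Ly3 cells, 4 h post-doxycycline with compound; red signal alone, scaled from basal (0%) to zero light (-100%), flagged nonspecific or cytotoxic effects.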

Row | Structure (SMILES) | AC50
1 | CCOC(=O)c1cc(-c2ccccc2)n(-c2cccc(C(=O)Nc3cc(OC)cc(OC)c3)c2)c1C | 10 µM [falling, partial curve]
2 | Cc1cc(C)cc(Oc2c(C(F)(F)F)oc3cc(OCC(=O)NC4CCCCC4)ccc3c2=O)c1 | 0.0251 µM [rising, full curve, poor fit]
3 | Cn1c(=O)oc2cc(S(=O)(=O)N3CCC(C(=O)Nc4ccc(F)c(Cl)c4)CC3)ccc21 | 31.6 µM [falling, partial curve]
4 | O=C(Nc1cccnc1)c1cc(-c2cccc(Cl)c2)on1 | 3.16 µM [falling, full curve]
5 | O=C(NCc1ccc(F)cc1)c1cc(-c2ccc(Cl)cc2)n[nH]1 | 3.98 µM [falling, partial curve]
6 | CCC(C)NC(=O)CCSc1nc(-c2ccc(OC)cc2)cc(C(F)(F)F)n1 (centres undefined) | 0.158 µM [rising, full curve, poor fit]
7 | CCc1ccc(S(=O)(=O)c2nnn3c2nc(Nc2ccc(F)cc2)c2cc(Cl)ccc23)cc1 | 12.6 µM [falling, partial curve]
8 | O=C(O)c1cccc(Nc2ncnc3scc(-c4ccccc4)c23)c1 | 25.1 µM [falling, single point]
9 | CCN(CC)S(=O)(=O)c1ccc(C(=O)N2CC(=O)Nc3ccc(F)cc3C2c2ccccc2)cc1 (centres undefined) | 12.6 µM [falling, partial curve]
10 | CC(=O)N1c2ccc(S(=O)(=O)NCC3CCC(C(=O)Nc4cc(C)ccc4C)CC3)cc2CC1C (centres undefined) | 5.01 µM [falling, partial curve]
11 | COc1cc(NC(=O)c2c(C)oc3c2C2=NCCN2C=N3)cc(OC)c1OC | 31.6 µM [falling, partial curve]
12 | COc1ccc(OCC(=O)NCc2ccc3c(c2)CCN3C(=O)c2ccc(F)cc2)cc1 | 3.98 µM [rising, partial curve]
13 | CCCc1cc(C(=O)Nc2c(C)nn(Cc3c(Cl)cccc3Cl)c2C)no1 | 12.6 µM [falling, partial curve]
14 | Cc1cc(C)c(S(=O)(=O)Nc2ccc(-c3ccc(N4CCCCCC4)nn3)cc2)c(C)c1 | 7.94 µM [falling, partial curve]
15 | O=C(c1cc(-c2cccs2)on1)N1CCCc2ccccc21 | 20 µM [falling, partial curve]
16 | O=S(=O)(NCC(c1cccs1)S(=O)(=O)c1ccccc1)c1ccc(F)c(C(F)(F)F)c1 (centres undefined) | 39.8 µM [falling, single point]
17 | CCN(Cc1ccccc1)S(=O)(=O)c1cc(C(=O)Nc2cc(Cl)cc(Cl)c2)ccc1F | 15.8 µM [falling, partial curve]
18 | CC(C)(C)C1CCc2c(sc(NC(=O)c3ccc(Cl)cc3)c2C(=O)NCc2ccco2)C1 (centres undefined) | 10 µM [falling, partial curve]
19 | COc1ccccc1N1CCN(c2ncnc3c2cnn3-c2cccc(Cl)c2)CC1 | 2.51 µM [falling, full curve]
20 | CCNS(=O)(=O)c1ccc(NC(=O)Nc2cccc(C(F)(F)F)c2)cc1 | 25.1 µM [falling, partial curve]

3 entries already listed, sorted by length of the SMILES, low to high.
Row | Structure (SMILES) | AC50
5 | O=C(NCc1ccc(F)cc1)c1cc(-c2ccc(Cl)cc2)n[nH]1 | 3.98 µM [falling, partial curve]
17 | CCN(Cc1ccccc1)S(=O)(=O)c1cc(C(=O)Nc2cc(Cl)cc(Cl)c2)ccc1F | 15.8 µM [falling, partial curve]
16 | O=S(=O)(NCC(c1cccs1)S(=O)(=O)c1ccccc1)c1ccc(F)c(C(F)(F)F)c1 (centres undefined) | 39.8 µM [falling, single point]

Continued:

Row | Structure (SMILES) | AC50
21 | Cc1ccc(Cn2c(CN3CCC(C(=O)NCCc4ccccc4)CC3)cc3ccccc32)cc1 | 15.8 µM [falling, partial curve]
22 | CC(C)Sc1ncc(Cl)c(C(=O)N(Cc2ccc(N(C)C)cc2)C2CCS(=O)(=O)C2)n1 (centres undefined) | 39.8 µM [falling, single point]
23 | CCc1nn(CC(=O)Nc2ccc(N(CC)CC)cc2C)c(=O)c2cc3sccc3n12 | 39.8 µM [falling, single point]
24 | N#Cc1ccc(C(=O)Nc2ccc3c(c2)N(C2CCCC2)C(=O)c2ccccc2S3)cc1 | 0.126 µM [falling, partial curve, poor fit]
25 | Cc1ccc(-c2noc(-c3ccccc3NC(=O)C3CC(=O)N(c4ccccc4C)C3)n2)cc1 (centres undefined) | 0.0794 µM [rising, full curve, poor fit]
26 | CCOC(=O)c1c(NC(=O)c2ccc(Br)o2)sc(C)c1CC | 10 µM [falling, partial curve]
27 | Cc1nn(-c2ccc(N3CCCC3)nn2)c(C)c1CCC(=O)Nc1ccc(F)c(Cl)c1 | 25.1 µM [falling, partial curve]
28 | O=C(NCCc1nc2ccccc2n1Cc1ccc(Cl)cc1Cl)c1ccco1 | 39.8 µM [falling, single point]
29 | CC(C)Cn1c(=O)c2ccccc2n2c(CCC(=O)NC(C)c3ccccc3)nnc12 (centres undefined) | 15.8 µM [falling, partial curve]
30 | CCOc1ccc(C2C(C(=O)Nc3ccccc3)=C(C)Nc3nc(SCc4cc(C)ccc4C)nn32)cc1 (centres undefined) | 2 µM [rising, partial curve]
31 | Cc1cc(C)c2nc(N(Cc3cccnc3)C(=O)c3cccs3)sc2c1 | 25.1 µM [falling, single point]
32 | COc1cc(Cl)ccc1NC(=O)COc1ccccc1C(=O)N1CCN(c2ccc(O)cc2)CC1 | 25.1 µM [falling, partial curve]
33 | COc1cc(NS(=O)(=O)c2ccc(OC)c(C)c2C)c(OC)cc1Cl | 10 µM [falling, partial curve]
34 | COc1cccc(C2=NOC(C(=O)Nc3cccc(C(C)=O)c3)C2)c1OC (centres undefined) | 15.8 µM [falling, partial curve]
35 | COc1ccc(OCc2nnc3n2N=C(c2ccc(C)cc2)CS3)cc1 | 39.8 µM [falling, single point]
36 | CCN(CC)C(=O)c1sc2c(c1C)c(=O)n(-c1ccc(OC)cc1OC)c(=O)n2CC(=O)c1ccc(Cl)cc1 | 3.16 µM [rising, partial curve, poor fit]
37 | COc1cc(NC(=O)c2oc3c(c2C)-c2nn(Cc4cccc(Cl)c4)cc2CC3)cc(OC)c1 | 3.16 µM [rising, partial curve]
38 | CCOc1ccc(N(C(C)C(=O)Nc2cc(Cl)ccc2OC)S(C)(=O)=O)cc1 (centres undefined) | 39.8 µM [falling, partial curve]
39 | O=C(Nc1ccc(OC(F)(F)F)cc1)C1CCN(S(=O)(=O)c2cccs2)CC1 | 12.6 µM [falling, partial curve]
